# PubChem BioAssay AID504791 – Drosophila RNAi Screening Center – 2011
# Purpose: 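Factors in Argonaute-based small RNA production and activity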 (primary screen)
# Cells: Drosophila S2-derived reporter cells
# Knock-down reagent: long dsRNA against Drosophila genes, about 150-250 ng dsRNA per well (siRNA assay); about 80-120 ng (miRNA assay)
# Timing: about 5 days (siRNA assay); about 4 days (miRNA assay)
# Conditions: copper sulfate induction of reporters: 25 µM (siRNA assay); 200 mM stated (miRNA assay), 1-2 days before reading
# Measured: 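Per-well ratio of Renilla over firefly light, expressed relative to that plate's average ratio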
# Reading the numbers: siRNA reporter hit score: higher = 3 marks a strong hit with raised ratio; -3 a strong hit with lowered ratio
# Rule for the call: 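First-pass picks had plate-scaled ratios over 1.5 for the siRNA assay, over 1.6 for the miRNA assay, or under 0.6; two distinct dsRNAs had to score alike on retest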
# The screen tested about 23,000 reagents; shown is an unselected part of those with a known target gene and a result. Of all reagents, 199 (0.86%) got an active call. 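Plate-scaled ratios behind the calls are not deposited; printed light signals are raw; many rows marked increased or decreased are still called inactive.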 A plus sign joins genes that one reagent is predicted to hit. Reagent sequences are not shown.
gene,dsRNA,siRNA reporter hit score,stable siRNA reporter change,miRNA reporter change,"stable assay Renilla, run 1 (luminescence)","stable assay firefly, run 1 (luminescence)",activity call
ms(3)K81,DRSC14746,,,,7090,4.61e5,inactive
CG3123,DRSC00570,,,,7768,4.56e5,inactive
HDAC6,DRSC20252,,,,9151,8.10e5,inactive
NELF-B,DRSC17734,,,reporter ratio lowered past the hit cutoff,7939,5.69e5,active
CG7101,DRSC20023,,,,6642,3.54e5,inactive
CG7101,DRSC22845,,,,3808,4.11e5,inactive
CG10916,DRSC06012,,,,9631,2.93e5,inactive
CG2694,DRSC18470,,,,6631,3.62e5,inactive
CG15247,DRSC17976,,,,5263,3.37e5,inactive
YL-1,DRSC02765,,,,8672,3.92e5,inactive
Cks30A,DRSC03292,,,,5911,5.85e5,inactive
AstCC,DRSC02404,,,,6816,3.31e5,inactive
Try29F,DRSC03466,,,reporter ratio raised past the hit cutoff,9772,5.48e5,inactive
zen,DRSC12632,,,,7339,3.83e5,inactive
Gr22e,DRSC20912,,,,5320,4.26e5,inactive
MtnD,DRSC22733,,,,2992,3.19e5,inactive
mRpL49,DRSC19908,,,,4747,3.72e5,inactive
PpV,DRSC18700,,,,6194,3.23e5,inactive
PpV,DRSC23307,,,,3915,2.80e5,inactive
edl,DRSC06516,,,,10895,3.93e5,inactive
IFT20 + CG10395,DRSC22660,,,,5463,5.03e5,inactive
Jon66Ci,DRSC10772,,,,5974,4.17e5,inactive
CG6051,DRSC15956,,,,6279,3.34e5,inactive
sens-2,DRSC02136,,,,8019,4.11e5,inactive
sens-2,DRSC02613,,,,8429,4.17e5,inactive
sens-2,DRSC21374,,,,8759,3.72e5,inactive
cup,DRSC03516,,,,2.10e5,1.20e6,inactive
CG42233,DRSC14328,,,,6423,3.06e5,inactive
CG42233,DRSC15416,,,,5812,2.38e5,inactive
CG5646,DRSC15853,,,,8266,4.98e5,inactive
Antp,DRSC12490,3,,,5886,2.08e5,inactive
Antp,DRSC23104,,,,2868,2.59e5,inactive
dos,DRSC07992,,,,4015,3.17e5,inactive
dos,DRSC08713,,,,6051,3.56e5,inactive
dos,DRSC23285,,,,2660,2.38e5,inactive
GstO2,DRSC10691,,,,8226,4.35e5,inactive
Polr2G,DRSC16068,,,,5431,2.63e5,inactive
Task7,DRSC16477,,,,7665,3.68e5,inactive
CG15544,DRSC15082,,,,6151,3.10e5,inactive
Aos1,DRSC14113,,reporter ratio lowered past the hit cutoff,,5104,5.30e5,inactive
CG15203,DRSC19650,,,,5079,2.96e5,inactive
CG9458,DRSC16495,,,,6438,4.12e5,inactive
Lhr,DRSC06759,,,,8257,3.98e5,inactive
Glut3,DRSC16681,,,,8017,5.42e5,inactive
Srp54k,DRSC11289,,,,6854,3.76e5,inactive
GstT3,DRSC20541,,,,6387,3.52e5,inactive
eco,DRSC11006,,,,8150,3.48e5,inactive
CG33469,DRSC22900,,,,3924,3.12e5,inactive
CG15888,DRSC15125,,,,7274,3.66e5,inactive
CG9270,DRSC03182,,,,9374,7.53e5,inactive
Csgalnact,DRSC06228,,,,5990,2.96e5,inactive
RpL8,DRSC08532,,,,6499,2.58e5,inactive
RpL8,DRSC08695,,,,6370,2.59e5,inactive
rau,DRSC03125,,,,1.12e5,1.01e5,inactive
Dhc16F,DRSC20242,,,,5844,4.14e5,inactive
B9d1,DRSC14993,,,,7571,4.31e5,inactive
CG31688 + CG31687,DRSC02116,,,,5779,3.05e5,inactive
Mal-A4,DRSC07236,,,,7586,3.82e5,inactive
CG7990,DRSC19296,,,,3467,3.26e5,inactive
CG7990,DRSC20069,,,,5750,2.83e5,inactive
CG7990,DRSC23195,,,,1212,58164,inactive
BEAF-32,DRSC05927,,,,8421,3.48e5,inactive
Oatp58Dc,DRSC04363,,,,11801,1.17e6,inactive
CG14273,DRSC02377,,,,6555,3.03e5,inactive
CG6839,DRSC10723,,,,10389,3.83e5,inactive
M7BP,DRSC05932,,,,7994,6.04e5,inactive
CG31809,DRSC01561,,,,4734,3.25e5,inactive
Ir93a,DRSC15212,,,,13988,5.95e5,inactive
Ir93a,DRSC15213,,,,6588,2.93e5,inactive
CG14282,DRSC14763,,,,6775,3.86e5,inactive
bor,DRSC16915,,,,7531,5.52e5,inactive
Spn88Ea,DRSC17061,,,,6814,3.07e5,inactive
CG13293,DRSC09967,,,,6718,3.93e5,inactive
CG14756,DRSC06491,,,,6540,4.01e5,inactive
CG32547,DRSC19263,,,,4518,3.51e5,inactive
CG32547,DRSC19265,,,,4568,3.73e5,inactive
CG32547,DRSC19474,,,,4867,3.82e5,inactive
CG32547,DRSC19626,,,,4996,3.94e5,inactive
Pal2,DRSC04507,,,,6864,3.96e5,inactive
CG7156,DRSC16207,,,,7658,2.71e5,inactive
sala,DRSC03605,,,,6508,3.45e5,inactive
Hsp83,DRSC08664,,reporter ratio lowered past the hit cutoff,,6662,8.75e5,inactive
CG17637,DRSC11740,,,,7735,3.85e5,inactive

Sorted by “stable assay firefly, run 1 (luminescence)” (high to low): some entries from above.
gene,dsRNA,siRNA reporter hit score,stable siRNA reporter change,miRNA reporter change,"stable assay Renilla, run 1 (luminescence)","stable assay firefly, run 1 (luminescence)",activity call
Cks30A,DRSC03292,,,,5911,5.85e5,inactive
Try29F,DRSC03466,,,reporter ratio raised past the hit cutoff,9772,5.48e5,inactive
YL-1,DRSC02765,,,,8672,3.92e5,inactive
zen,DRSC12632,,,,7339,3.83e5,inactive
CG2694,DRSC18470,,,,6631,3.62e5,inactive
CG15247,DRSC17976,,,,5263,3.37e5,inactive
AstCC,DRSC02404,,,,6816,3.31e5,inactive
